# The list shows a part of the results.
# By UniProt entry, the sequences of proteins in these tests, tags left out. Where a name states a change or a piece, a line headed by the entry shows the natural chain unless it says otherwise.
# UniProt Q9BRB3: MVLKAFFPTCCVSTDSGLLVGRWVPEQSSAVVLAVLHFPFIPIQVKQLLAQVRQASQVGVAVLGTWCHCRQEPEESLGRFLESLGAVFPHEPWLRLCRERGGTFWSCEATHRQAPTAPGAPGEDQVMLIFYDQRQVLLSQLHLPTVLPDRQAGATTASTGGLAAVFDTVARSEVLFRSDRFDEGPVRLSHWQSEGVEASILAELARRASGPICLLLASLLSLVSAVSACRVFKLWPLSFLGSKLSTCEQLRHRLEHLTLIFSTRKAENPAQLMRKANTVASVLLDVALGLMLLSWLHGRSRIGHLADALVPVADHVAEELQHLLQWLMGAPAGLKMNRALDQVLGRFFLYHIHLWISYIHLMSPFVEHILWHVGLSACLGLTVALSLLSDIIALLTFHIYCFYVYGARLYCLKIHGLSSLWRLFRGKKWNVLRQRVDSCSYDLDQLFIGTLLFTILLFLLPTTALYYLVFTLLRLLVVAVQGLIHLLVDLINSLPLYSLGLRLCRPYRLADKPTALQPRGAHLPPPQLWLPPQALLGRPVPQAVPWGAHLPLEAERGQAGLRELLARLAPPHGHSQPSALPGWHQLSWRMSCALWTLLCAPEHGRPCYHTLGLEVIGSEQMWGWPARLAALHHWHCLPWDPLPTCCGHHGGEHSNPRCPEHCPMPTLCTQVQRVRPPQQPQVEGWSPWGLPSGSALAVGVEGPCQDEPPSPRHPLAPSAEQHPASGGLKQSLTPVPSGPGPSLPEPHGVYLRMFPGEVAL
# UniProt P18669: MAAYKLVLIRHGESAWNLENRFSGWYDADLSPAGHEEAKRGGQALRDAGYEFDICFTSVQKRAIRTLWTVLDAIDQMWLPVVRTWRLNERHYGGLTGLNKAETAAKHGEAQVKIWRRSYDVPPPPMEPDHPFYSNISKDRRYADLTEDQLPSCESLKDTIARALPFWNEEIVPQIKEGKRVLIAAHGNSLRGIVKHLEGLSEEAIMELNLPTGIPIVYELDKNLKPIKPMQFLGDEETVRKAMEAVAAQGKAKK
# UniProt P14618, whole entry, looked up: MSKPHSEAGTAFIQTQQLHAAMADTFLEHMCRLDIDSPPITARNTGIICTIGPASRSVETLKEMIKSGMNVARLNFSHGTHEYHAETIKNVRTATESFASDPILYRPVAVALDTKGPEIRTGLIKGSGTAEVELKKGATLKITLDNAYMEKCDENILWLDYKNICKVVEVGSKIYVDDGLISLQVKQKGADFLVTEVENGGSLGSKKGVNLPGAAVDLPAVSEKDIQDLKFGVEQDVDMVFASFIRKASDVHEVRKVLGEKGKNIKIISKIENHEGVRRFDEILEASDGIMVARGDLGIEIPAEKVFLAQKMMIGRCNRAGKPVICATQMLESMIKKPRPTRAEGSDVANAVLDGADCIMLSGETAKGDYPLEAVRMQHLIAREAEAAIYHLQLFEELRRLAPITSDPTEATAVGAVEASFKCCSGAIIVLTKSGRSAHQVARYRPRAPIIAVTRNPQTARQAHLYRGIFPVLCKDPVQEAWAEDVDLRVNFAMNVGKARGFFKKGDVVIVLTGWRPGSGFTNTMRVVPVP
# UniProt Q9BUL5: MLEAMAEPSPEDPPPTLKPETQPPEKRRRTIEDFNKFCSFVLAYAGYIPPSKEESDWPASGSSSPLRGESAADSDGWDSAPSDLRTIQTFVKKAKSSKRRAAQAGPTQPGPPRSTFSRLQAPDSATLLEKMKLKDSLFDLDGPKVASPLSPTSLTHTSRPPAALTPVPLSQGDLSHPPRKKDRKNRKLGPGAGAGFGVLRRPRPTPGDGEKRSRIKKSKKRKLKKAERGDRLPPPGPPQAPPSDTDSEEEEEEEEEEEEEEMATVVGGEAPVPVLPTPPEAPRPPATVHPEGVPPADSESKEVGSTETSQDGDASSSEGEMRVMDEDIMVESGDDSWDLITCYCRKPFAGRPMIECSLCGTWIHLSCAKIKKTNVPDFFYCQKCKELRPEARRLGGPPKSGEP
# UniProt O15067: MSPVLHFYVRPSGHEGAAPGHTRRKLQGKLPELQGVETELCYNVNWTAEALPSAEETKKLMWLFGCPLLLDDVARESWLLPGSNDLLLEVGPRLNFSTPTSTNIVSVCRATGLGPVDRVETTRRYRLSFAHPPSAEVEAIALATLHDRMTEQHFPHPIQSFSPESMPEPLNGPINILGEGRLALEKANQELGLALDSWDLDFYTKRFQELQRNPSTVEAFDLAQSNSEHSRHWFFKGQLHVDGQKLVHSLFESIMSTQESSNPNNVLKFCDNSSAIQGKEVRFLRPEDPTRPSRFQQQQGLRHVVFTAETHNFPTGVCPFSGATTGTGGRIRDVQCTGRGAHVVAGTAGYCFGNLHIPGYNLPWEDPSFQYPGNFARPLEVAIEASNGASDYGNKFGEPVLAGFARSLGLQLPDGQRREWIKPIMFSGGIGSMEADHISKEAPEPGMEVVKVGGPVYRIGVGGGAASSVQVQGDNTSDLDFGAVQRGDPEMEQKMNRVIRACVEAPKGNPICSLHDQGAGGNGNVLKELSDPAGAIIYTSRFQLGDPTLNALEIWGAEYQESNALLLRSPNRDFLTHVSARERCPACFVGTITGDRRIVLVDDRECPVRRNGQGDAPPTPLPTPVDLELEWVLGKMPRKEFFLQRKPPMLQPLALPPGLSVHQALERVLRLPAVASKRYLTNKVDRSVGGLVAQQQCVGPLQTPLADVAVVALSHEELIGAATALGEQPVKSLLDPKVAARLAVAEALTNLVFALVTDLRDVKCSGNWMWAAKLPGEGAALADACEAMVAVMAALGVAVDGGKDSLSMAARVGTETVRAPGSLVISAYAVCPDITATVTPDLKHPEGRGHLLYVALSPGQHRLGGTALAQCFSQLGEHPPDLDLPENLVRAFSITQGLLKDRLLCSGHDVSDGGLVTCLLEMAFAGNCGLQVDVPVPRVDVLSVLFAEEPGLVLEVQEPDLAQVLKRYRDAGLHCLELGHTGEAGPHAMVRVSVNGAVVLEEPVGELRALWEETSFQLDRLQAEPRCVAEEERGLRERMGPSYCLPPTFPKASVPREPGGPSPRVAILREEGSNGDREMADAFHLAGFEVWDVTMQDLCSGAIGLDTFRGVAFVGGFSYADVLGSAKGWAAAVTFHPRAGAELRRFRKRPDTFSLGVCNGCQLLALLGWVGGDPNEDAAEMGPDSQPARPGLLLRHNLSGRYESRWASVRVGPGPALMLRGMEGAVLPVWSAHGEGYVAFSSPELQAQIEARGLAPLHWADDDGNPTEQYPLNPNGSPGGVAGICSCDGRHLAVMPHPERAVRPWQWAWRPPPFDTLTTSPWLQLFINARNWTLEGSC
# UniProt Q9BZM1: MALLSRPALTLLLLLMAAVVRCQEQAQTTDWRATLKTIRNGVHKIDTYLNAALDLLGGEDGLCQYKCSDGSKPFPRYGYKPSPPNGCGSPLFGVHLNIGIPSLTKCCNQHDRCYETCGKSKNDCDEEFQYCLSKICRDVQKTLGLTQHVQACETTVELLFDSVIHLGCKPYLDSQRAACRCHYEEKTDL
# UniProt Q99623, whole entry, looked up: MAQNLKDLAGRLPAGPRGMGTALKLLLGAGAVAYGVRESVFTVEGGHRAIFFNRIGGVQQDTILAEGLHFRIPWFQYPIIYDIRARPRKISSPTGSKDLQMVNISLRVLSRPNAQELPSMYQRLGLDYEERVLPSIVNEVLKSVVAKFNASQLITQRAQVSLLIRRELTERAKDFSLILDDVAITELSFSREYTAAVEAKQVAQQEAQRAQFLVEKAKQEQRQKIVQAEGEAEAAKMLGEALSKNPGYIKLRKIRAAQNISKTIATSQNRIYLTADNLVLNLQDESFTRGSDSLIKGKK
# UniProt Q9GZP4: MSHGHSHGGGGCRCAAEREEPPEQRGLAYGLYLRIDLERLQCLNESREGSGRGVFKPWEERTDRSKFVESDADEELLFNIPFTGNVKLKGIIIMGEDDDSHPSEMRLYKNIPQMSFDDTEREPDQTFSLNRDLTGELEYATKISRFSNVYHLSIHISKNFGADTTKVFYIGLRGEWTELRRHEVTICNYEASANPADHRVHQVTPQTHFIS
# UniProt Q9NWS0, whole entry, looked up: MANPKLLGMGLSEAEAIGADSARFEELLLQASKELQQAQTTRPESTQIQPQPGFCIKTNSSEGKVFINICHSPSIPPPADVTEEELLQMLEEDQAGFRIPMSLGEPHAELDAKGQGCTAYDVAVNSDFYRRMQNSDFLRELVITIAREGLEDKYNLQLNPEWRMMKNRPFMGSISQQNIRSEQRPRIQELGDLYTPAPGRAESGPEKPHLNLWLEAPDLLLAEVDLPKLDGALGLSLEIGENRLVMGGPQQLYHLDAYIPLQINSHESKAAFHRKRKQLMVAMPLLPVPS
# UniProt O43175: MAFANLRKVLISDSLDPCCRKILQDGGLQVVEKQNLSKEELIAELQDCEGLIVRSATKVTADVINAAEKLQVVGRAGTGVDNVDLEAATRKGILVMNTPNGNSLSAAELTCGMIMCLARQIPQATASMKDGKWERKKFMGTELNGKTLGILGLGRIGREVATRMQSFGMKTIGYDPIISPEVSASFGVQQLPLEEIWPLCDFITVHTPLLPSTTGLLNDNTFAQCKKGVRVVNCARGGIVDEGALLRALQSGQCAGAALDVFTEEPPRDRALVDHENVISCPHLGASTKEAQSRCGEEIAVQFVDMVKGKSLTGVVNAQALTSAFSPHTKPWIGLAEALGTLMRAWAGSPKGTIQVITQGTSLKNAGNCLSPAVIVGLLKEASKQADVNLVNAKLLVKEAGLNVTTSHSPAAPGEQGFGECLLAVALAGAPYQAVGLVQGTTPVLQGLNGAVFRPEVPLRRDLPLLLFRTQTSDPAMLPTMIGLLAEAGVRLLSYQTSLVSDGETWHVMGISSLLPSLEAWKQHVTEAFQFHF
# UniProt P37287: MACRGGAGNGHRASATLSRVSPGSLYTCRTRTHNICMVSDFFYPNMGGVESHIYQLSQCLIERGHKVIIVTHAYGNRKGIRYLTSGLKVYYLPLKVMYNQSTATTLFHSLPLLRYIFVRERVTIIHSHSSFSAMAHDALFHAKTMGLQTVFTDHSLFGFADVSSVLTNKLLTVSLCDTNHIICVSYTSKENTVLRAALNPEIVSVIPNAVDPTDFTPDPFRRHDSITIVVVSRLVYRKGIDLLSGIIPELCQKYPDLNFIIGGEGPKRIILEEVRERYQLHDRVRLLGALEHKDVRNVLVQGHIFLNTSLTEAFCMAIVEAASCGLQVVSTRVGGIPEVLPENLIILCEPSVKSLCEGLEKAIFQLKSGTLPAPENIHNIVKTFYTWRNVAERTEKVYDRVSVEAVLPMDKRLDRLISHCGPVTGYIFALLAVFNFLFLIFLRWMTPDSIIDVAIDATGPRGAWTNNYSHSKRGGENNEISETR
# UniProt Q99471, whole entry, looked up: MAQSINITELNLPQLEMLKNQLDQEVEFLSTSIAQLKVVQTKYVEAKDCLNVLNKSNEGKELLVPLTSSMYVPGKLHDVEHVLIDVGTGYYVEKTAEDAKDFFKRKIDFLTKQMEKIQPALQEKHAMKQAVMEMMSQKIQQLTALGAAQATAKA
# UniProt P17858: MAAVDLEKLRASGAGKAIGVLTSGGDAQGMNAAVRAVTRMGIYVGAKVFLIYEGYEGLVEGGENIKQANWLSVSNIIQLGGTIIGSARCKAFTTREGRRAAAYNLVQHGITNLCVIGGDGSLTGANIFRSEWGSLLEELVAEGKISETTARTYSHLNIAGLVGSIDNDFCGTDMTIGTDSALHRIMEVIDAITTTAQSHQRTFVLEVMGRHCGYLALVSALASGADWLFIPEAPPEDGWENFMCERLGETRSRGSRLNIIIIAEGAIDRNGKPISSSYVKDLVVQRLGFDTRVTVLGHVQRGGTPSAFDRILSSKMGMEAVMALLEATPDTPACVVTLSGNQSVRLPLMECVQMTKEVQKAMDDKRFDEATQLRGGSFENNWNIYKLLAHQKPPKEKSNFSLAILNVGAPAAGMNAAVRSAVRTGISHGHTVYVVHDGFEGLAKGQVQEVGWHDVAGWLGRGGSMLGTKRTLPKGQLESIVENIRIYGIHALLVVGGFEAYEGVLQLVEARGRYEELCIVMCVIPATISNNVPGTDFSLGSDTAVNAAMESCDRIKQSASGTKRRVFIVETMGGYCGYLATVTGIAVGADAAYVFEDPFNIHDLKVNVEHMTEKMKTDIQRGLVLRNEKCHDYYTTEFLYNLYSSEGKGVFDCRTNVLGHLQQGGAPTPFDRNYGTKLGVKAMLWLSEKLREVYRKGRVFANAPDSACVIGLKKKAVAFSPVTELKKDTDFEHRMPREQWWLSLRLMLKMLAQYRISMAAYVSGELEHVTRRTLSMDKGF
# UniProt P07737, whole entry, looked up: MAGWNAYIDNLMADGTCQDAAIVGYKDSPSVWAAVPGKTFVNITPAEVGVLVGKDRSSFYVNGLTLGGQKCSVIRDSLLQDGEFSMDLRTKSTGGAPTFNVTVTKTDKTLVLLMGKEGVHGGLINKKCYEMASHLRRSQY
# UniProt O15173: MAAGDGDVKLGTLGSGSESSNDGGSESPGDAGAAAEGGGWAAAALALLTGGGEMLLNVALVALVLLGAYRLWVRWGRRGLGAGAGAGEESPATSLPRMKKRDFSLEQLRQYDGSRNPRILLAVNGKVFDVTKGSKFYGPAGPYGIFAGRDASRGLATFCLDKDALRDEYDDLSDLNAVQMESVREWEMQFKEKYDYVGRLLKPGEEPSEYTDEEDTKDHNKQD
# Experiments:
# Test in all cases: log2 fold change, soluble protein after heating vs DMSO (PISA); higher = thermal stabilisation; K562 cells, 10 uM, 30 min; active = over 0.2 and 3.5 SD of the protein, either way, in both replicates (recomputed)
# erlotinib = compound: C#Cc1cccc(Nc2ncnc3cc(OCCOC)c(OCCOC)cc23)c1 [erlotinib]
# How it was run: (§1)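 K562 cells at 2×10^6 cells/mL were treated for 30 min with 10 μM compound, and aliquots were heated for 3 min over 48°C-58°C before pooling. Extraction used PBS with 0.5% NP-40 at 4°C, and soluble protein was the supernatant after 21,000xg for 90 min, measured by TMTpro 16plex LC-MS/MS with channel sums equalised. Thermal stability values, relative to control samples and from duplicates, are log2 fold changes.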
# [1] = compound: C/C(=N\NC(=O)C1=CC(=CC=C1)S(=O)(=O)N2CCOCC2)/C3=C(C=CC(=C3)Cl)O
# How it was run: as §1
# [2] = compound: C1=CC(=C(C=C1Cl)C2=NC3=NC=CN=C3C(=N2)NC4=CC=NC=C4)F
# How it was run: as §1
# [3] = compound: C1=CC(=CC=C1C2=NC3=C(N2)C=C(C=C3)C(=O)N)OC4=CC=C(C=C4)Cl
# How it was run: as §1
# [4] = compound: C1=CC2=C(C=CC(=C2)/C=C\3/C(=O)NC(=NCC4=CC=CS4)S3)N=C1
# How it was run: as §1
# [5] = compound: C1=CC2=NC=CN=C2C=C1/C=C/3\C(=O)NC(=O)S3
# How it was run: as §1
# [6] = compound: C1=CC=C(C=C1)C2=NC(=C(N2)C3=CC=NC=C3)C4=CC(=C(C=C4)Cl)O
# How it was run: as §1
# [7] = compound: C1=CC=C2C(=C1)C3=NNC4=CC=CC(=C43)C2=O
# How it was run: as §1
# [8] = compound: C1CCN(C1)C(=O)NC2=CC=CC(=C2)NC3=NC=C(C(=N3)NCCC4=CN=CN4)Br
# How it was run: as §1
# [9] = compound: C1CN(CCC1(CC2=CC=C(C=C2)Cl)N)C3=NC=NC4=C3C=CN4
# How it was run: as §1
Target,log2 fold change (erlotinib),log2 fold change [1],log2 fold change [2],log2 fold change [3],log2 fold change [4],log2 fold change [5],log2 fold change [6],log2 fold change [7],log2 fold change [8],log2 fold change [9]
PFKP (UniProt Q01813),inactive: 0.006,inactive: 0.012,inactive: 0.008,inactive: 0.005,inactive: 0.001,inactive: -0.021,inactive: -0.035,inactive: -0.008,inactive: -0.04,inactive: 0.013
PIGH (UniProt Q14442),inactive: -0.036,inactive: 0.068,inactive: 0.049,inactive: 0.027,inactive: 0.042,inactive: -0.03,inactive: -0.065,inactive: -0.054,inactive: -0.005,inactive: 0.009
PIGQ (UniProt Q9BRB3),inactive: 0.161,inactive: 0.099,inactive: 0.103,inactive: -0.126,inactive: -0.081,inactive: 0.011,inactive: -0.093,inactive: 0.027,inactive: 0.003,inactive: -0.033
PEX7 (UniProt O00628),inactive: 0.021,inactive: 0.034,inactive: 0.034,active: 0.276,inactive: 0.08,inactive: -0.117,inactive: 0.039,inactive: -0.041,inactive: -0.031,inactive: 0.063
PGAM1 (UniProt P18669),inactive: -0.03,inactive: 0.003,inactive: 0.069,inactive: -0.003,inactive: -0.044,inactive: -0.009,inactive: -0.051,inactive: 0.03,inactive: -0.013,inactive: 0.053
PIK3CB (UniProt P42338),inactive: 0.07,inactive: 0.018,inactive: 0.002,inactive: -0.022,inactive: 0.081,inactive: 0.09,inactive: 0.032,inactive: 0.014,inactive: -0.016,inactive: 0.004
PKM (UniProt P14618),inactive: 0.008,inactive: -0.005,inactive: 0.052,inactive: 0.003,inactive: 0.002,inactive: -0.003,inactive: -0.016,inactive: -0.011,inactive: -0.006,inactive: 0.029
PHF23 (UniProt Q9BUL5),inactive: 0.006,inactive: 0.038,inactive: -0.013,inactive: 0.003,inactive: 0.014,inactive: 0.02,inactive: -0.079,inactive: -0.009,inactive: 0.071,inactive: 0.011
PLD1 (UniProt Q13393),inactive: -0.061,inactive: -0.011,inactive: -0.113,inactive: 0.092,inactive: 0.075,inactive: 0.01,inactive: 0.058,inactive: -0.061,inactive: -0.171,inactive: -0.089
PHF3 (UniProt Q92576),inactive: -0.072,inactive: -0.114,inactive: -0.24,inactive: 0.014,inactive: -0.172,inactive: 0,inactive: -0.048,inactive: -0.088,inactive: -0.097,inactive: -0.107
PHB (UniProt P35232),inactive: -0.01,inactive: 0.007,inactive: 0.093,inactive: -0.016,inactive: 0.007,inactive: 0.015,inactive: 0.002,inactive: -0.007,inactive: 0.009,inactive: -0.002
PFAS (UniProt O15067),inactive: -0.011,inactive: 0.141,inactive: 0.066,inactive: 0.205,inactive: 0.034,inactive: -0.22,inactive: 0.087,inactive: 0.068,inactive: -0.01,inactive: -0.146
PEX16 isoform 2 (UniProt Q9Y5Y5),inactive: 0.081,inactive: -0.044,inactive: 0.147,inactive: 0.013,inactive: 0.085,inactive: 0.06,inactive: 0.008,inactive: -0.004,inactive: -0.031,inactive: 0.051
PLA2G12A (UniProt Q9BZM1),inactive: 0.197,inactive: 0.002,inactive: 0.222,inactive: -0.359,inactive: -0.099,inactive: -0.009,inactive: 0.141,inactive: 0.045,inactive: -0.033,inactive: -0.097
PIGL (UniProt Q9Y2B2),inactive: -0.022,inactive: 0.022,inactive: -0.041,inactive: 0.031,inactive: 0.137,inactive: 0.037,inactive: -0.013,inactive: -0.13,inactive: 0.009,inactive: 0.128
PIP4P2 (UniProt Q8N4L2),inactive: 0.014,inactive: -0.066,inactive: 0.026,inactive: 0.039,inactive: 0.009,inactive: 0.145,inactive: 0.063,inactive: -0.002,inactive: 0.014,inactive: -0.007
PHB2 (UniProt Q99623),inactive: -0.05,inactive: -0.01,inactive: 0.016,inactive: 0.008,inactive: -0.001,inactive: 0.029,inactive: -0.032,inactive: 0.047,inactive: 0.015,inactive: 0.01
PIK3R2 (UniProt O00459),inactive: 0.085,inactive: 0.087,inactive: -0.134,inactive: -0.033,inactive: 0.004,inactive: -0.09,inactive: 0.013,inactive: 0.09,inactive: 0.014,inactive: -0.027
PITHD1 (UniProt Q9GZP4),inactive: 0.006,inactive: -0.04,inactive: -0.033,inactive: 0.048,inactive: 0.025,inactive: -0.079,inactive: -0.035,inactive: -0.003,inactive: 0.072,inactive: 0.059
PICALM (UniProt H0YEY8),inactive: 0.046,inactive: -0.006,inactive: 0.05,inactive: -0.048,inactive: 0.086,inactive: -0.013,inactive: -0.161,inactive: -0.071,inactive: -0.038,inactive: 0.014
PHKG2 (UniProt P15735),inactive: -0.067,inactive: -0.078,inactive: 0.021,inactive: -0.003,inactive: -0.055,inactive: -0.113,inactive: 0.034,inactive: 0.076,inactive: -0.159,inactive: 0.029
PIH1D1 (UniProt Q9NWS0),inactive: -0.009,inactive: 0.054,inactive: -0.064,inactive: 0.003,inactive: 0.01,inactive: 0.06,inactive: -0.037,inactive: 0.012,inactive: -0.042,inactive: -0.063
PHGDH (UniProt O43175),inactive: -0.014,inactive: 0.042,inactive: 0.079,inactive: 0.004,inactive: -0.04,inactive: -0.064,inactive: -0.003,inactive: 0.024,inactive: -0.003,inactive: 0.032
PIP4K2B (UniProt P78356),inactive: 0.16,inactive: -0.022,inactive: 0.082,inactive: -0.083,inactive: 0.017,inactive: 0.244,inactive: 0.104,inactive: 0.096,inactive: 0.13,inactive: 0.037
PIGA (UniProt P37287),inactive: -0.038,inactive: -0.047,inactive: 0.011,inactive: -0.019,inactive: -0.1,inactive: 0.056,inactive: 0.128,inactive: -0.102,inactive: -0.007,inactive: 0.039
PFDN5 (UniProt Q99471),inactive: -0.094,inactive: 0.008,inactive: 0.189,inactive: 0.014,inactive: 0.04,inactive: 0.052,inactive: 0.115,inactive: 0.029,inactive: -0.076,inactive: -0.043
PFKL isoform 2 (UniProt P17858),inactive: -0.008,inactive: -0.016,inactive: 0.041,inactive: 0.043,inactive: 0.023,inactive: 0.013,inactive: -0.005,inactive: -0.005,inactive: -0.02,inactive: 0.053
PFN1 (UniProt P07737),inactive: -0.014,inactive: 0.059,inactive: 0.091,inactive: -0.004,inactive: -0.005,inactive: 0.003,inactive: 0.003,inactive: 0.02,inactive: -0.016,inactive: 0.022
PIK3R4 (UniProt Q99570),inactive: -0.004,inactive: -0.023,inactive: -0.014,inactive: -0.007,inactive: -0.003,inactive: 0.097,inactive: -0.033,inactive: 0.043,inactive: -0.009,inactive: 0.01
PGRMC2 isoform 2 (UniProt O15173),inactive: 0.017,inactive: 0.006,inactive: 0.048,inactive: -0.018,inactive: -0.041,inactive: 0.008,inactive: 0.021,inactive: -0.015,inactive: -0.002,inactive: 0.03

# As entered above:
# In log2 fold change [3], PIK3R2 (UniProt O00459) has the entry inactive: -0.033
# In log2 fold change [8], PKM (UniProt P14618) has the entry inactive: -0.006

# — the supplement of paper PMC10849652
